Publication PMC10813020
Results are given in words; binding and its absence hold for the method and conditions named. Binding seen in cells or lysates may run through a third protein. Some results given as binding are weak or reduced against the parent protein; the word gives no strength.

The chains behind the UniProt entries cited, without tags or fusion partners.
UniProt Q5H8C4: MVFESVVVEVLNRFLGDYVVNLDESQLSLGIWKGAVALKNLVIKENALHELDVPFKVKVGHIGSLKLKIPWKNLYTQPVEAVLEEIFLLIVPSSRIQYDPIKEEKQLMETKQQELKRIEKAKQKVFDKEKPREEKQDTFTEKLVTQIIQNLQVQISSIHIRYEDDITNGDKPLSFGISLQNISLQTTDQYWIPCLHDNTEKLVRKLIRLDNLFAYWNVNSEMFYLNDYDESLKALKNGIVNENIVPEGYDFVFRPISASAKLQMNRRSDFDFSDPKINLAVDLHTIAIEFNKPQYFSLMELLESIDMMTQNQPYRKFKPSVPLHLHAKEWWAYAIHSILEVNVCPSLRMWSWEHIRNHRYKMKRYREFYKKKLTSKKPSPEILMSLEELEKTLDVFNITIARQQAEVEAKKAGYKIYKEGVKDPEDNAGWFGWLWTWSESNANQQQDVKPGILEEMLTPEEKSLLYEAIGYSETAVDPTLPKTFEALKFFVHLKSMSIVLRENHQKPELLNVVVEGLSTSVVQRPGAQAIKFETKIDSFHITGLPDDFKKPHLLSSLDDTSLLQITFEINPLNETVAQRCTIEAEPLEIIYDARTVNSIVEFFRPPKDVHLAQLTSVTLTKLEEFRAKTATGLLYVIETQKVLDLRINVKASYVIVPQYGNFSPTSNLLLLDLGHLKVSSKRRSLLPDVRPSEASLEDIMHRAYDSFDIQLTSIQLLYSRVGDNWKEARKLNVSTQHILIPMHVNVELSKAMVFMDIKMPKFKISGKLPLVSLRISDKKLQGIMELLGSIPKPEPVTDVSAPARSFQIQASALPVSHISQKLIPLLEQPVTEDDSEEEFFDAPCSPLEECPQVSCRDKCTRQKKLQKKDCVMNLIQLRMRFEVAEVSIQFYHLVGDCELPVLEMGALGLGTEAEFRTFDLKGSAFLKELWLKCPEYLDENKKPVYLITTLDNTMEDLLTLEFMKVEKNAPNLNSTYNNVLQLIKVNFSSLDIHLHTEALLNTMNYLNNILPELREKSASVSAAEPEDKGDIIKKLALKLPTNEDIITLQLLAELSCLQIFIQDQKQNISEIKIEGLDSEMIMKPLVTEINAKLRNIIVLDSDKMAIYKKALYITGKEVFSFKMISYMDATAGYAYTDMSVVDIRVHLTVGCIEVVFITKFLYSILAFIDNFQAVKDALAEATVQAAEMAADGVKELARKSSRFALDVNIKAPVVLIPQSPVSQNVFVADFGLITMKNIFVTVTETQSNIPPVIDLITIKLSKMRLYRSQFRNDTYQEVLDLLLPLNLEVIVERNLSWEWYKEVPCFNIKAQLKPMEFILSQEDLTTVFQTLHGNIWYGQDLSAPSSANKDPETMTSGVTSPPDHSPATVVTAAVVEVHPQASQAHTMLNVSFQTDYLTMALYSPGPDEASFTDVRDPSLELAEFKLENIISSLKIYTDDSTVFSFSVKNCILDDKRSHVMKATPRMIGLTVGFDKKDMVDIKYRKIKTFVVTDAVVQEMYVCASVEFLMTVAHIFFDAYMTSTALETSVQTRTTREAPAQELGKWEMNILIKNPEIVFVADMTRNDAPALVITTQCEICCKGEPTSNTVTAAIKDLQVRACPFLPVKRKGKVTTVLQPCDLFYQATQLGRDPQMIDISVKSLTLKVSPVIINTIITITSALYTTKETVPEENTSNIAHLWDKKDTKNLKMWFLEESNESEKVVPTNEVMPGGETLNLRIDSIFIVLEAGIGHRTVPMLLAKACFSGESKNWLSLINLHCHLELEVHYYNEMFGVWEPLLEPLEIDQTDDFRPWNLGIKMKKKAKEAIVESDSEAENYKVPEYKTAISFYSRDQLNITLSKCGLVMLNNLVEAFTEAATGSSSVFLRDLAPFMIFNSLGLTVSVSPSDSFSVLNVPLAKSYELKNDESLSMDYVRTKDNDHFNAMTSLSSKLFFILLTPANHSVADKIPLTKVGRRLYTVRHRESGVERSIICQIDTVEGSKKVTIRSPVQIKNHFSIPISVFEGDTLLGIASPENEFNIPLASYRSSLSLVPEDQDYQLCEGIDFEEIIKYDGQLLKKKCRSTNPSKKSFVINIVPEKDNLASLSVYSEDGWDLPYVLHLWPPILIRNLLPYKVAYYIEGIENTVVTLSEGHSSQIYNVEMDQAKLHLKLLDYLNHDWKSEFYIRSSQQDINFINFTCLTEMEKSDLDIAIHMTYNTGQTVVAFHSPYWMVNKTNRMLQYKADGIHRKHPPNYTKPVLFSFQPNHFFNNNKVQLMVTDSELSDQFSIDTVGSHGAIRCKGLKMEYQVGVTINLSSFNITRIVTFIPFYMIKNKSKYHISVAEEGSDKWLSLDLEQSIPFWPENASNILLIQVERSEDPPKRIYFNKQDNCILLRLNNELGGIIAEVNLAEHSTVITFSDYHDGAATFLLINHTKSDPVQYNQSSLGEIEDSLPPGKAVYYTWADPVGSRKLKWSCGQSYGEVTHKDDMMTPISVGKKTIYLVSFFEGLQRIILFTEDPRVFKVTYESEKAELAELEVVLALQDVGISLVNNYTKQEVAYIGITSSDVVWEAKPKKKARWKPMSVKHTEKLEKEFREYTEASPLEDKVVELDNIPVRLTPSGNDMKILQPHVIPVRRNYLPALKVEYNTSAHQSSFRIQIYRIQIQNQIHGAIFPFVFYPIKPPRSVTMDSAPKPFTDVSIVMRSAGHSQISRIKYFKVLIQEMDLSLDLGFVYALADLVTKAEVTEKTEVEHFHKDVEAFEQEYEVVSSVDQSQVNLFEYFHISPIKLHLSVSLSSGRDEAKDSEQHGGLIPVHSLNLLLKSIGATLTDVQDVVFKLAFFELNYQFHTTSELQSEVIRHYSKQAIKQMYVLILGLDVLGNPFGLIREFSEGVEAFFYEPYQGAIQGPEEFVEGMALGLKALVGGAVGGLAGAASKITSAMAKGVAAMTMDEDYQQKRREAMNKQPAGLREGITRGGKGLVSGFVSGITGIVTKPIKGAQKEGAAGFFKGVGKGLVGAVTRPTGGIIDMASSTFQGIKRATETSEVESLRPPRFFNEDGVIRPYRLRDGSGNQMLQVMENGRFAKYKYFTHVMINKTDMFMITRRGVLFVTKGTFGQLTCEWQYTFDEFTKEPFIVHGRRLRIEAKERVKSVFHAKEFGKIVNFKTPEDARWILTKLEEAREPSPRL

T1: isocitrate dehydrogenase 3 subunit alpha (IDH3A) (mouse (endogenous in epididymal sperm)) (UniProt Q9D6R2)
T1 sequence: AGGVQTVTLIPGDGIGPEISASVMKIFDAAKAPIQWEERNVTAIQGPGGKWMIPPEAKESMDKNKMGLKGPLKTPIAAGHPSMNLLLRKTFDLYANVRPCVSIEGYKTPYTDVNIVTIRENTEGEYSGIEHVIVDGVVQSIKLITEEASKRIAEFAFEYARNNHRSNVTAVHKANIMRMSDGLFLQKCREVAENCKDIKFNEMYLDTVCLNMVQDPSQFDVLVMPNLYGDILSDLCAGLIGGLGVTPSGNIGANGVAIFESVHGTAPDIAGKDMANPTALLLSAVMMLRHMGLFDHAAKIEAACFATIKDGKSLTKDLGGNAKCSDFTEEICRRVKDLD


Columns and labels:
[1] = biological target: T1, isocitrate dehydrogenase 3 subunit alpha (IDH3A) (mouse (endogenous in epididymal sperm)); test: co-IP; anti-chorein or anti-IDH3A antibody on Dynabeads Protein G; 500 µg soluble fraction of wild-type mouse epididymal sperm lysate (1% NP-40), 10 min at room temperature, three washes with lysis buffer; eluates by Western blotting
[2] = biological target: chorein (VPS13A, vacuolar protein sorting 13 homolog A) (mouse (endogenous in epididymal sperm)) (UniProt Q5H8C4); test: as above

| Molecule | binding [1] | binding [2] |
| --- | --- | --- |
| chorein (VPS13A, vacuolar protein sorting 13 homolog A) (from UniProt Q5H8C4 1-3166) | binds | – |
| phosphoglycerate kinase 2 (PGK2) (protein, UniProt P09041 1-417) MALSAKLTLDKVDLKGKRVIMRVDFNVPMKNNQITNNQRIKAAIPSIKHCLDNGAKSVVLMSHLGRPDGIPMPDKYSLEPVADELKSLLNKDVIFLKDCVGPEVEQACANPDNGSIILLENLRFHVEEEGKGKDSSGKKISADPAKVEAFQASLSKLGDVYVNDAFGTAHRAHSSTVGVNLPQKASGFLMKKELDYFSKALEKPERPFLAILGGAKVKDKIQLIKNMLDKVNFMIIGGGMAYTFLKELKNMQIGASLFDEEGATIVKEIMEKAEKNGVKIVFPVDFVTGDKFDENAKVGQATIESGIPSGWMGLDCGPESIKINAQIVAQAKLIVWNGPIGVFEWDAFAKGTKALMDEVVKATSNGCVTIIGGGDTATCCAKWGTEDKVSHVSTGGGASLELLEGKILPGVEALSNM | binds | – |
| isocitrate dehydrogenase 3 subunit alpha (IDH3A) (protein, UniProt Q9D6R2 28-366) AGGVQTVTLIPGDGIGPEISASVMKIFDAAKAPIQWEERNVTAIQGPGGKWMIPPEAKESMDKNKMGLKGPLKTPIAAGHPSMNLLLRKTFDLYANVRPCVSIEGYKTPYTDVNIVTIRENTEGEYSGIEHVIVDGVVQSIKLITEEASKRIAEFAFEYARNNHRSNVTAVHKANIMRMSDGLFLQKCREVAENCKDIKFNEMYLDTVCLNMVQDPSQFDVLVMPNLYGDILSDLCAGLIGGLGVTPSGNIGANGVAIFESVHGTAPDIAGKDMANPTALLLSAVMMLRHMGLFDHAAKIEAACFATIKDGKSLTKDLGGNAKCSDFTEEICRRVKDLD | – | binds |
| acetyl-CoA acetyltransferase 1 (ACAT1) (protein, UniProt Q8QZT1 31-424) ASKPTLNEVVIVSAIRTPIGSFLGSLASQPATKLGTAAIQGAIEKAGIPKEEVKEVYMGNVIQGGEGQAPTRQATLGAGLPISTPCTTVNKVCASGMKAIMMASQSLMCGHQDVMVAGGMESMSNVPYVMSRGATPYGGVKLEDLIVKDGLTDVYNKIHMGNCAENTAKKMNISRQEQDTYALSSYTRSKEAWDAGKFASEITPITISVKGKPDVVVKEDEEYKRVDFSKVPKLKTVFQKENGTITAANASTLNDGAAALVLMTAEAAQRLNVKPLARIAAFADAAVDPIDFPLAPAYAVPKVLKYAGLKKEDIAMWEVNEAFSVVVLANIKMLEIDPQKVNIHGGAVSLGHPIGMSGARIVVHMAHALKPGEFGLASICNGGGGASALLIEKL | – | binds |
